Measurements taken from patent US20020132977A1.
Results are given in words; binding and its absence hold for the method and conditions named. A result given as binding can be weak or reduced; the word gives no strength. Sequences can lack the tags named with a protein. For some assays here: In cells and extracts the contact can be indirect.

What was measured:
[1] = target: GST-Mdm2 fusion protein, full-length Mdm2; assay: GST-Mdm2 pull-down from cell lysates, anti-p73 immunoblot
[2] = target: GST-Mdm2 fusion protein, N-terminus of Mdm2; assay: as above
Mdm2 [3] = assay: anti-Flag IP from 293T lysates, anti-Mdm2 immunoblot
Mdm2 [4] = assay: summary of co-IP and pull-down results
Mdm2 [5] = assay: anti-Flag IP from 293T lysates, anti-Mdm2 Western

binding [1]: binds | binding [2]: binds | binding (Mdm2 [3]): binds | binding (Mdm2 [4]): binds | binding (Mdm2 [5]): binds
B1: Flag-tagged p73β (protein, UniProt O15350-2 1-499, looked up, not shown: small tags and cut ends)
chain: MAQSTATSPDGGTTFEHLWSSLEPDSTYFDLPQSSRGNNEVVGGTDSSMDVFHLEGMTTSVMAQFNLLSSTMDQMSSRAASASPYTPEHAASVPTHSPYAQPSSTFDTMSPAPVIPSNTDYPGPHHFEVTFQQSSTAKSATWTYSPLLKKLYCQIAKTCPIQIKVSTPPPPGTAIRAMPVYKKAEHVTDVVKRCPNHELGRDFNEGQSAPASHLIRVEGNNLSQYVDDPVTGRQSVVVPYEPPQVGTEFTTILYNFMCNSSCVGGMNRRPILIIITLEMRDGQVLGRRSFEGRICACPGRDRKADEDHYREQQALNESSAKNGAASKRAFKQSPPAVPALGAGVKKRRHGDEDTYYLQVRGRENFEILMKLKESLELMELVPQPLVDSYRQQQQLLQRPSHLQPPSYGPVLSPMNKVHGGMNKLPSVNQLVGQPPPHSSAATPNLGPVGPGMLNNHGHAVPANGEMSSSHSAQSMVSGSHCTPPPPYHADPSLVRTWGP
